Laboratory results reported in the supplement of paper PMC10727501.
± gives the standard deviation of the averaged measurements. The list shows a part of the results. Single values are uncertain here, since repeats match poorly.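 Free-swimming zebrafish larvae were assessed for O-bend response probability to dark flashes (naive: first five; training: remaining flashes across four 60-flash blocks; test: later 60-flash block) and for OMR turning toward alternating leftward/rightward LED motion. Six treated larvae were compared against sixty 0.1% DMSO controls; hits required |SSMD|≥2.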

Experiments:
Conditions in all cases: 10 µM; pre-incubation: 30-90 min
[1] = test system: Danio rerio larvae (5 dpf, TLF); test: OMR-Perf (SSMD vs DMSO vehicle); higher = higher than vehicle (e.g. higher dark-flash O-bend response probability, or better optomotor performance)
[2] = test system: Danio rerio larvae (5 dpf, TLF); test: Prob-Test (SSMD vs DMSO vehicle); higher = higher than vehicle (e.g. higher dark-flash O-bend response probability, or better optomotor performance)
[3] = test system: Danio rerio larvae (5 dpf, TLF); test: Prob-Naive (SSMD vs DMSO vehicle); higher = higher than vehicle (e.g. higher dark-flash O-bend response probability, or better optomotor performance)
[4] = test system: Danio rerio larvae (5 dpf, TLF); test: Prob-Train (SSMD vs DMSO vehicle); higher = higher than vehicle (e.g. higher dark-flash O-bend response probability, or better optomotor performance)

SMILES | OMR-Perf [1] | Prob-Test [2] | Prob-Naive [3] | Prob-Train [4]
Cc1cc(N)c2ccccc2[n+]1CCCCCCCCCC[n+]1c(C)cc(N)c2ccccc21.[Cl-].[Cl-] [Dequalinium chloride] | 0.263 | 0.347 | 0.457 | 0.896
Cn1c(N2CCCCS2(=O)=O)nc(C(=O)NCc2ccc(F)cc2)c(O)c1=O | -0.949 | -1.85 | -0.197 | -0.645
COc1ccc(CNCc2cccc3ccccc23)cc1.Cl | -0.00791 | -0.832 | 0.42 | 0.0391
COC(=O)[C@@H]1CC2=CC(=O)CC[C@]2(C)[C@]23O[C@H]2C[C@@]2(C)[C@@H](CC[C@]24CCC(=O)O4)[C@H]13 [Eplerenone] | -0.0179 ± 0.27 | -0.038 ± 0.11 | 0.134 | -0.208 ± 0.51
CN(C)CC/C=C1\c2ccccc2Sc2ccc(Cl)cc21 [Chlorprothixene] | -0.666 | -0.645 | 0.252 | -1.04
CC(C)[C@H](C(=O)Nc1ccc(C(=O)NO)cc1)c1ccccc1 | 0.403 | 0.892 | 0.146 | 0.621
COCCCN1CCC(NC(=O)c2cc(Cl)c(N)c3c2OCC3)CC1.O=C(O)CCC(=O)O [Prucalopride Succinat] | 0.279 | -1.28 | -0.026 | -0.784

2 neighbouring entries already listed, quoted:
SMILES | OMR-Perf [1] | Prob-Test [2] | Prob-Naive [3] | Prob-Train [4]
COc1ccc(CNCc2cccc3ccccc23)cc1.Cl | -0.00791 | -0.832 | 0.42 | 0.0391
COC(=O)[C@@H]1CC2=CC(=O)CC[C@]2(C)[C@]23O[C@H]2C[C@@]2(C)[C@@H](CC[C@]24CCC(=O)O4)[C@H]13 [Eplerenone] | -0.0179 ± 0.27 | -0.038 ± 0.11 | 0.134 | -0.208 ± 0.51
